According to patent US11771647B2, “Eye drops in form of solution comprising benzopyran derivative or pharmaceutically acceptable salt thereof” (HANLIM PHARMACEUTICAL CO., LTD., priority 2018, dated 2023):
At least one read-out could not be matched to a standard name with certainty.

Assay: Manufacturability / solubilization of HL217 eye drop solution (appearance)
Type: physicochemical
Details: pH adjusted to a range of 4.5±0.5; high concentration (0.3 w/v % or more)

COC(OC)[C@]1(C)Oc2ccc(N)cc2[C@H](N(Cc2ncc[nH]2)c2ccc(Cl)cc2)[C@H]1O [HL217, (2R,3R,4S)-6-amino-4-[N-(4-chlorophenyl)-N-(1H-imidazol-2-ylmethyl)amino]-3-hydroxy-2-methyl-2-dimethoxymethyl-3,4-dihydro-2H-1-benzopyran]
Solubilization of HL217 (appearance): a transparent solution was obtained without generating precipitates
